# Measured values reported in PubChem BioAssay AID485298 (National Center for Advancing Translational Sciences (NCATS), 2010).
# The campaign covered roughly 320,000 compounds. About 740 (0.23%) were called active. The shares of active, inactive and inconclusive entries below differ from those in the screen. Calls come from the whole dose curve; as a rule, active = well fitted activation curve with a large enough effect; inconclusive = small, poorly fitted or top-dose-only effect; inactive = no such curve, though single readings can be large or run the other way. A potency beside an inconclusive call is a rough fit, not a confirmed value.
# Experiment: qHTS Assay for Small Molecule Inhibitors of Mitochondrial Division or Activators of Mitochondrial Fusion; note: nearly all actives have a fitted effect of over 45% in size; for growth rescue (activation): % of control where 0% means no effect
# Settings: S. cerevisiae fusion-defective mutant growth rescue, CellTiterGlo 48 h; growth rescue (activation): at 46.1 µM (top of the series) unless noted
# Summary of the method: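 Temperature-sensitive fusion-defective S. cerevisiae (e.g. fzo1-1, mgm1-5) were grown with compound in YPEG medium (3% ethanol, 3% glycerol) for 48 hours at 37C. Growth rescue was measured as viability by CellTiterGlo luminescence after 10 minutes at ambient.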
# Potency is the fitted concentration of half-maximal effect.
Compound,Potency,growth rescue (activation)
CCN(CC)S(=O)(=O)c1ccc(N2CCOCC2)c(NC(=O)c2cc3ccccc3oc2=O)c1,"inconclusive: 12.6 µM [activator, partial curve]",
COc1ccc(S(=O)(=O)N2CCN(C(=O)NCc3ccccc3)CC2)cc1,,inactive: 2.57%
Cc1cc(C(=O)N/N=C/c2ccc[nH]2)no1,,inactive: -0.782%
Cc1ccc(N=C2SC(C(=O)Nc3ccc(OC(F)(F)F)cc3)C(N)=C2C(=O)Nc2c(C)cc(C)cc2C)cc1 (stereo not given),,inactive: 3.49%
C=C(C)C1CC=C(C)/C(=N/NC(=O)COc2ccccc2Cl)C1 (stereo not given),"inconclusive: 11.2 µM [activator, partial curve]",
C/C(=N\NC(=O)C12CCC(C)(C(=O)O1)C2(C)C)c1ccccc1O (stereo not given),,inactive: -4.4%
CC(=O)c1c(OC(=O)c2cccc(Cl)c2)c2ccccc2n1C,"inconclusive: 15.8 µM [activator, single point]",
COc1ccccc1-c1c(C)[nH]n2c(=O)c(Cc3ccccc3)c(C)nc12,,inactive: -2%
N=C(N)SCCc1ccc(CCSC(=N)N)cc1,active: 20.6 µM,
Cc1cc(Cl)ccc1NNC(=O)c1c(C)noc1C,,inactive: -1.28%
Cc1ccc(OCC(=O)Nc2ccccc2Sc2ccc(Cl)cc2)c([N+](=O)[O-])n1,"inconclusive: 17.8 µM [activator, single point]",
Cn1c(CSCc2ccccc2Cl)n[nH]c1=S,,inactive: -7.33%
CCCCCCOC(=O)c1ccc(OC(=O)c2cccnc2)cc1,"inconclusive: 12.6 µM [activator, partial curve]",
O=[N+]([O-])c1c(NCCCO)cc(Sc2nc3ccccc3s2)c2nonc12,,inactive: -7.23%
CCS(=O)(=O)NCCc1cc2cc(C)c(C)cc2[nH]c1=O,,inactive: -3.8%
Oc1ccccc1-c1cc(-c2ccc3c(c2)OCCO3)n[nH]1,,inactive: 13%
Cc1ccc(NC(=O)c2ccc(OC(=O)c3ccco3)cc2)cc1,,inactive: -3.18%
COC(=O)c1ccc2nc(NC(=O)CSCC(=O)OCC(=O)c3ccccc3)sc2c1,,inactive: -2.2%
CC(C(=O)Nc1cccc(Br)c1)c1ccc([N+](=O)[O-])cc1 (stereo not given),"inconclusive: 35.5 µM [activator, single point]",
CSc1cccc(NC(=O)c2sc3nc4n(c(=O)c3c2C)CCC4)c1,"inconclusive: 31.6 µM [activator, single point]",
COc1ccc(C(=O)OCc2cc(C)ccc2C)cc1S(=O)(=O)N1CCCC1,"inconclusive: 31.6 µM [activator, single point]",
C=CCc1cc2c(oc(=O)c3ccccc32)c(C)c1O,"inconclusive: 12.6 µM [activator, partial curve]",
Cc1nc(SCC(=O)NC(=O)NCc2ccco2)nc(C)c1C,"inconclusive: 35.5 µM [activator, single point]",
O=C(CSc1nnc2ccc3ccccc3n12)N1CCOCC1,"inconclusive: 11.2 µM [activator, partial curve]",

Compound,Potency,growth rescue (activation)
COc1ccccc1NC(=O)CSCC(=O)N1c2ccccc2CCc2ccccc21,"inconclusive: 17.8 µM [activator, partial curve]",
CC(=O)Nc1cccc(OCC(=O)Nc2sccc2C(N)=O)c1,,inactive: -0.725%
COc1ccccc1NC(=O)CC12CC3CC(CC(Br)(C3)C1)C2,"inconclusive: 12.6 µM [activator, partial curve]",
Cc1ccc(NC(=S)NNC(=S)Nc2ccc(C)cc2C)cc1,"inconclusive: 35.5 µM [activator, single point]",
Cc1cc(C(C)(C)C)oc1C(=O)N(CC(=O)NC1CCCC1)Cc1ccccc1Cl,"inconclusive: 12.6 µM [activator, single point]",
COc1ccc(-c2noc(CCC(=O)NC3CCCCCC3)n2)cc1,,inactive: 29.7%
CN1CCN(C(c2ccc(Cl)cc2)c2cc(Cl)c3cccnc3c2O)CC1 (stereo not given),"inconclusive: 11.2 µM [activator, partial curve]",
COc1ccc(C(c2nnnn2C2CCCCC2)N2CCN(c3ccc(OC)cc3)CC2)cc1 (stereo not given),"inconclusive: 12.6 µM [activator, partial curve]",
O=c1c2ccccc2nc(SCc2ccccc2)n1CC1CCCO1 (stereo not given),"inconclusive: 12.6 µM [activator, partial curve]",
Cc1cc2cc(CCNC(=O)CCCc3ccccc3)c(=O)[nH]c2cc1C,"inconclusive: 6.31 µM [activator, full curve, poor fit]",
C=CCN1CCc2c(cc(O)c(O)c2Cl)C(c2ccccc2)C1 (stereo not given),"inconclusive: 18.4 µM [activator, single point]",
Cc1ccc(C)c(OCCCC(C)(C)C(=O)O)c1,"inconclusive: 25.1 µM [activator, partial curve]",
CC(=O)NCC(=O)N1CCCC(C(=O)c2ccc(-c3ccccc3)c(F)c2)C1 (stereo not given),"inconclusive: 35.5 µM [activator, single point]",
CCC(Sc1nc2ccccc2s1)C(=O)Nc1cc(C)on1 (stereo not given),"inconclusive: 28.2 µM [activator, single point]",
O=C(Nc1cccc2cccnc12)c1ccc(Cl)cc1Cl,,inactive: 18%
O=C(NCc1ccccn1)c1cc(-c2ccc(-c3ccccc3)cc2)nc2ccccc12,"inconclusive: 14.1 µM [activator, partial curve]",
COc1ccc2c(C)cc(SCC(=O)Nc3c(C)n(C)n(-c4ccccc4)c3=O)nc2c1,,inactive: -2.92%
CCN(CC(=O)Nc1cccc(S(=O)(=O)N(C)c2ccccc2)c1)Cc1ccccc1,"inconclusive: 3.55 µM [activator, full curve, poor fit]",
COc1ccc(OC)c(-c2csc(NC(=O)Cc3cccs3)n2)c1,"inconclusive: 35.5 µM [activator, single point]",
Cc1cc(NC(=O)CN2CCN(C)CC2)no1,,inactive: 3.78%
O=C(CCC1CCCCC1)Nc1cc(Cl)ccc1N1CCOCC1,"inconclusive: 15.8 µM [activator, single point]",
O=C1CN(C(=O)COc2ncnc3ccccc23)c2ccccc2N1,"inconclusive: 2.82 µM [activator, partial curve]",
NC(=O)C1=C[C@@H](c2ccc(Br)cc2)C[C@@H](OCc2ccc(CO)cc2)O1,"inconclusive: 5.62 µM [activator, single point]",
CC(CNc1nc2ccccc2n2cnnc12)c1ccccc1 (stereo not given),"inconclusive: 35.5 µM [activator, partial curve, poor fit]",

Compound,Potency,growth rescue (activation)
COCCn1c(=S)[nH]c2cc(C(=O)NCC3CCCO3)ccc2c1=O (stereo not given),,inactive: -6.42%
COc1ccccc1C(=O)NC(=S)Nc1ccc(Cc2ccncc2)cc1,"inconclusive: 6.31 µM [activator, partial curve]",
CCCOC(=O)C1=C(C)NC2=C(C(=O)CCC2)C1c1cccs1 (stereo not given),,inactive: 1.19%
CC(=O)c1cccc(NC(=O)c2ccc(-c3ccccc3[N+](=O)[O-])o2)c1,"inconclusive: 22.4 µM [activator, partial curve]",
CSc1ccccc1NC(=O)C1CC(c2ccccc2Cl)=NO1 (stereo not given),,inactive: -1.36%
COc1ccc([C@@H]2Sc3ccccc3N(CCN(C)C)C(=O)[C@@H]2OC(C)=O)cc1,"inconclusive: 0.731 µM [activator, full curve, poor fit]",
CCC(=O)O/N=C(\N)c1ccc(Oc2cc(C)c(Cl)c(C)c2)c([N+](=O)[O-])c1,"inconclusive: 11.2 µM [activator, partial curve]",
CCOC(=O)[C@H]1[C@H]2COc3ccc(Cl)cc3[C@@H]2N2C(=O)c3ccc(F)cc3NC(=O)[C@@]12C,"inconclusive: 12.6 µM [activator, partial curve]",
CC(NCC(O)c1ccc([N+](=O)[O-])cc1)C12CC3CC(CC(C3)C1)C2 (stereo not given),"inconclusive: 2.82 µM [activator, full curve]",
O=C(O)CCS(=O)(=O)c1cccc2cccnc12,,inactive: -0.792%
O=C(c1cc(COc2cccc3cnccc23)on1)N1CCC(c2ccccc2Cl)C1 (stereo not given),"inconclusive: 14.1 µM [activator, partial curve, poor fit]",
Cc1ccc(-c2cc(C(=O)N(C)Cc3cnn(C)c3C)c3cc(Br)ccc3n2)cc1,"inconclusive: 31.6 µM [activator, single point]",
COc1ccc(S(=O)(=O)N2CCCCCC2)cc1C(=O)N(C)Cc1ccc(Cl)cc1Cl,"inconclusive: 20 µM [activator, single point]",
O=C(NCC1CC1)c1ccc(Oc2cc(Cl)cc(Cl)c2)o1,"inconclusive: 14.1 µM [activator, partial curve]",
CCCCCNCC(=O)Nc1cccc(C(=O)Nc2cccc(C(F)(F)F)c2)c1,,inactive: -21.5%
CSc1cccc(NC(=O)CCCOc2ccc(Cl)cc2C)c1,"inconclusive: 17.8 µM [activator, single point]",
COc1ccccc1CCNC(=O)CSc1ccc(-c2ccco2)nn1,"inconclusive: 6.31 µM [activator, partial curve]",
Cc1cc2oc(C(=O)N(Cc3ccccc3)C3CCS(=O)(=O)C3)c(C)c2cc1C (stereo not given),"inconclusive: 20 µM [activator, single point]",
Cn1ncc(Cl)c(Oc2ccc(Cl)cc2)c1=O,,inactive: 4.18%
Cc1cccn2c(=O)c(/C=C(\C#N)C(N)=O)c(N3CCN(c4cccc(Cl)c4)CC3)nc12,"inconclusive: 12.6 µM [activator, partial curve]",
CCCNC(=O)CSc1nc(COc2ccccc2)nc2ccccc12,"inconclusive: 20 µM [activator, single point]",
NS(=O)(=O)c1ccc(N2N=C(c3ccccc3)CC2c2ccc(F)cc2)cc1 (stereo not given),"inconclusive: 31.6 µM [activator, single point]",

# Some of the entries so far, as tab-separated lines.
Compound	Potency	growth rescue (activation)
Cc1cc2oc(C(=O)N(Cc3ccccc3)C3CCS(=O)(=O)C3)c(C)c2cc1C (stereo not given)	inconclusive: 20 µM [activator, single point]	
Cn1ncc(Cl)c(Oc2ccc(Cl)cc2)c1=O		inactive: 4.18%
Cc1cccn2c(=O)c(/C=C(\C#N)C(N)=O)c(N3CCN(c4cccc(Cl)c4)CC3)nc12	inconclusive: 12.6 µM [activator, partial curve]	
CCCNC(=O)CSc1nc(COc2ccccc2)nc2ccccc12	inconclusive: 20 µM [activator, single point]	

# 2 compounds picked at random from the list so far, as already listed:
Compound,Potency,growth rescue (activation)
CC(C(=O)Nc1cccc(Br)c1)c1ccc([N+](=O)[O-])cc1 (stereo not given),"inconclusive: 35.5 µM [activator, single point]",
CC(=O)c1cccc(NC(=O)c2ccc(-c3ccccc3[N+](=O)[O-])o2)c1,"inconclusive: 22.4 µM [activator, partial curve]",
